About 13,000 (3.2%) of roughly 400,000 compounds were called active. Inconclusive results, whose numbers are uncertain, are shown with a selection of clear calls. Calls follow the shape of the dose curve; as a rule, active = well fitted cell-killing curve with a large enough effect; inconclusive = small, poorly fitted or top-dose-only effect, or effect the other way; inactive = flat fitted curve, though single readings scatter. Potencies of inconclusive entries are doubtful fits and often do not repeat.
Experiment: qHTS assay for MDR1-selective chemotherapeutics: Primary screen using the drug-selected MDR subline cells KB-V1; also: nearly all actives have a fitted effect of over 60% in size
Conditions: KB-V1 MDR cells viability, CellTiter-Glo, 72 h; activity change, negative = cytotoxicity: at 46.1 µM (top of the series)
How it was run: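 Cells of the MDR subline KB-V1 are plated, dosed with compound at multiple concentrations, and incubated 72 h at 37 degrees C; CellTiter-Glo is then added and luminescence read after 10 min.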
% is scaled to controls: 0 for no effect and ±100 for the full control effect; potency is read from the fitted curve at half-maximal effect.

SMILES | Potency | activity change, negative = cytotoxicity
O=C(Nc1cccc(Cl)c1)c1cc(-c2ccc3c(c2)OCCO3)on1 | inconclusive: 18.4 µM [cytotoxic, single point] | –
CCCn1c(N2CCN(CC(=O)c3c(C)n(C)c4ccccc34)CC2)nc2c1c(=O)[nH]c(=O)n2C | inconclusive: 13 µM [cytotoxic, partial curve] | –
Cc1nnc(N2CCCC(C(=O)Nc3cccc(C(F)(F)F)c3)C2)c2nn(-c3ccccc3)c(C)c12 (stereo unspecified) | – | inactive: 26.8%
O=C(CCNc1n[nH]c(=O)[nH]c1=O)N/N=C/c1ccc(C(F)(F)F)cc1 | – | inactive: 0.625%
CCCN(CC(=O)Nc1ccc(F)c(F)c1F)C(=O)CCc1nc2ccccc2c(=O)[nH]1 | inconclusive: 29.1 µM [cytotoxic, single point] | –
COc1ccc(OC)c(C(C[N+](=O)[O-])c2c(C)cc3ccccn23)c1 (stereo unspecified) | inconclusive: 29.1 µM [cytotoxic, single point] | –
Cc1ccc(C(=O)Nc2nnc(C3=COCCO3)o2)cc1C | inconclusive: 16.4 µM [cytotoxic, partial curve] | –
CCC(=O)c1ccc(OCC(O)Cn2c(C)nc3ccccc32)cc1 (stereo unspecified) | active: 8.2 µM | –
CCc1nnc(NC(=O)CSc2nnc(CNc3ccc(F)cc3)n2C2CCCCC2)s1 | inconclusive: 16.4 µM [cytotoxic, single point] | –
Cc1cc(C)c(S(=O)(=O)Nc2ccc(O)cc2)cc1C | – | inactive: -3.05%
Cc1ccc(NC(=S)N2CCN(c3nccc(C(F)(F)F)n3)CC2)c(C)c1 | inconclusive: 13 µM [rising, partial curve] | –
CC(=O)Nc1ccc(Nc2ncnc3c2cnn3-c2ccc(C)cc2C)cc1 | inconclusive: 25.9 µM [cytotoxic, partial curve, poor fit] | –
Cc1sc(N/N=C/c2cccnc2)nc1-c1ccccc1 | active: 11.6 µM | –
N/C(=N\OC(=O)c1ccccc1)C(Cc1ccccc1)C(=O)NOC(=O)c1ccccc1 (stereo unspecified) | inconclusive: 23.1 µM [cytotoxic, single point] | –
CC(C)CC(C(=O)OCC(=O)Nc1cccc(Cl)c1)N1C(=O)C2CC=CCC2C1=O (stereo unspecified) | inconclusive: 6.51 µM [cytotoxic, partial curve] | –
Cc1cccc(N(C(=O)c2csnn2)C(C(=O)NC2CCCCC2)c2ccccn2)c1C (stereo unspecified) | inconclusive: 8.2 µM [cytotoxic, partial curve] | –
COc1ccc(-c2ccc(-c3nnn(CC(=O)N4CCOCC4)n3)cc2)cc1 | inconclusive: 10.3 µM [cytotoxic, partial curve] | –
CC1Cc2ccccc2N1CC(=O)c1c(N)n(Cc2ccccc2)c(=O)n(C)c1=O (stereo unspecified) | inconclusive: 11.6 µM [cytotoxic, partial curve, poor fit] | –
COc1ccc(N2CCN(C(=O)c3cnc(SC)nc3C)CC2)cc1 | – | inactive: 31.7%
Cc1occc1-c1nnc(SCC(=O)NC2CCCCC2C)o1 (stereo unspecified) | inconclusive: 14.6 µM [cytotoxic, partial curve] | –
O=C(CSc1nc(=O)n2cc(Cl)ccc2n1)NCCc1ccccc1 | inconclusive: 29.1 µM [cytotoxic, partial curve, poor fit] | –
CN(C)C=Nc1ccc2nn(-c3ccccc3)nc2c1 | inconclusive: 14.6 µM [cytotoxic, partial curve] | –

SMILES | Potency | activity change, negative = cytotoxicity
Nc1sc(-c2ccccc2)cc1C(=O)NCCc1c[nH]c2ccccc12 | inconclusive: 23.1 µM [cytotoxic, partial curve] | –
CCCc1c(C)c2ccccc2[nH]c1=O | inconclusive: 18.4 µM [cytotoxic, single point] | –
Cc1cc(S(=O)(=O)Nc2cc3c(cc2NCc2ccccc2)n(C)c(=O)n3C)ccc1F | active: 20.6 µM | –
O=C(Nc1c(Cl)cc([N+](=O)[O-])cc1Cl)c1cc(Cl)cc(Cl)c1O | inconclusive: 20.6 µM [cytotoxic, single point] | –
O=c1ccc(-c2ccccc2)n[nH]1 | inconclusive: 29.1 µM [cytotoxic, single point] | –
Cc1ccccc1-c1nnc(SCC(=O)NC2CCCC2)o1 | – | inactive: -5.87%
COc1ccc(NC(=O)/C(=C/c2cccs2)NC(=O)c2ccco2)cc1 | – | inactive: -20.5%
N#C/C(=C/c1ccc(-c2ccccc2)o1)c1nc(-c2cccs2)cs1 | inconclusive: 16.4 µM [cytotoxic, single point] | –
CCc1noc(C)c1C(=O)Nc1nc(-c2ccc(OC)c(OC)c2)cs1 | active: 10.3 µM | –
CCOc1ccc(NC(=O)c2ccc3c(c2)nnn3C2CCCC2)cc1 | – | inactive: 27.5%
O=C(CN(Cc1cccs1)S(=O)(=O)c1ccc(S(=O)(=O)NC2CCCCC2)cc1)Nc1ccccc1 | active: 13 µM | –
COc1cc(C(=O)c2cocc2C(=O)c2ccc3c(c2)OCO3)cc(OC)c1OC | active: 1.16 µM | –
CCCC(=O)NC(c1ccco1)c1cc([N+](=O)[O-])c2cccnc2c1O (stereo unspecified) | inconclusive: 14.6 µM [cytotoxic, partial curve] | –
O=[N+]([O-])c1ccc(C(=S)N2CCCC2)cc1 | inconclusive: 29.1 µM [cytotoxic, single point] | –
COc1ccc(NS(=O)(=O)c2cc(NC(=O)c3nn(C)c(=O)c4ccccc34)ccc2OC)cc1 | – | inconclusive: -13%
CCOc1ccccc1C(=O)Nc1cc(OC)ccc1OC | active: 14.6 µM | –
COc1ccc(NC(=O)C2CCCCN2S(=O)(=O)c2ccc(F)cc2)c(OC)c1 (stereo unspecified) | active: 5.8 µM | –
COc1ccc(C=CC(=O)c2c(OC)cc(OC)c(OC)c2O)cc1 | inconclusive: 29.1 µM [cytotoxic, single point] | –
Cc1ccc(C)c2[nH]c(=O)c(CN(Cc3ccco3)C(=O)Nc3ccccc3)cc12 | – | inactive: -27.5%
COc1cccc2nc3cc(C)c(C)cc3nc12 | inconclusive: 13 µM [cytotoxic, partial curve, poor fit] | –
C[C@H]1CN([C@@H](C)CO)C(=O)Cc2cc(NC(=O)CCC(F)(F)F)ccc2O[C@H]1CN(C)Cc1ccc(C(F)(F)F)cc1 | inconclusive: 29.1 µM [cytotoxic, single point] | –
O=C(NC1CCc2ccccc21)c1cc(COc2c(F)cccc2F)on1 (stereo unspecified) | inconclusive: 29.1 µM [cytotoxic, single point] | –

SMILES | Potency | activity change, negative = cytotoxicity
CCOc1cnc(-c2c(-c3ccccc3Cl)noc2C)o1 | inconclusive: 29.1 µM [cytotoxic, single point] | –
CC(=O)c1ccc(S(=O)(=O)N2CCN(C(=O)c3ccc(COc4ccccc4)o3)CC2)cc1 | inconclusive: 18.4 µM [cytotoxic, partial curve] | –
COC(=O)CN1C(c2cccc(Cl)c2)=Nc2ccc(Cl)cc2C1c1ccccc1 (stereo unspecified) | inconclusive: 11.6 µM [cytotoxic, partial curve] | –
CCN(CC(=O)Nc1ccccc1C(F)(F)F)C(=O)c1ccccc1Cc1ccccc1 | inconclusive: 18.4 µM [cytotoxic, single point] | –
O=C(Nc1ccc(-c2nc3ccccc3s2)c(O)c1)c1ccc(Br)cc1 | inconclusive: 29.1 µM [rising, single point] | –
COc1ccc(-c2nnc(SCC(=O)N3CCc4ccccc4C3)o2)cc1 | inconclusive: 23.1 µM [cytotoxic, single point] | –
O=C(Nc1ccc2c(c1)OCO2)C1CC(c2ccccc2O)=NO1 (stereo unspecified) | inconclusive: 32.6 µM [cytotoxic, single point] | –
C=CCn1c(CCNC(=O)c2cccs2)nnc1SCC(=O)c1ccc(Br)cc1 | active: 20.6 µM | –
CCOc1ccc(C(=O)Nc2cccc(NC(=O)c3cccs3)c2)cc1[N+](=O)[O-] | – | inactive: 2.64%
CCOC(=O)c1c(C)[nH]c(C)c1S(=O)(=O)N1CCC(C(=O)NCc2cccc(C)c2)CC1 | inconclusive: 20.6 µM [rising, single point] | –
O=C(COC(=O)COc1cccc(C(F)(F)F)c1)NC1CCS(=O)(=O)C1 (stereo unspecified) | inconclusive: 29.1 µM [rising, single point] | –
CCN(CC)S(=O)(=O)c1ccc(NCCCn2ccnc2)c([N+](=O)[O-])c1 | inconclusive: 16.4 µM [cytotoxic, single point] | –
O=C1NC[C@@H](CCCCN2C[C@H](Cc3ccc(O)cc3)N(CCc3ccccc3)C(=O)C2=O)N(Cc2ccccc2)C1=O | – | inactive: 0%
COc1ccccc1NC(=S)N(CCN1CCOCC1)Cc1ccccc1F | inconclusive: 5.8 µM [cytotoxic, partial curve] | –
COC(=O)c1sc(NC(=O)c2ccc3c(c2)OCO3)c(C#N)c1C | inconclusive: 29.1 µM [rising, single point] | –
CCCCN(C(=O)CCC(=O)Nc1cc(C)on1)C(C(=O)NC(C)(C)C)c1ccccc1Cl (stereo unspecified) | inconclusive: 5.8 µM [cytotoxic, partial curve] | –
Cc1ccc(NC(=O)C(OC(=O)c2ccc(F)cc2)c2ccccc2)cc1Cl (stereo unspecified) | – | inactive: 0.192%
CC1(C)SC(=S)N(NC(=O)Nc2ccccc2)C1N(O)C(=O)Nc1ccccc1 (stereo unspecified) | inconclusive: 20.6 µM [cytotoxic, single point] | –
COc1ccc(NC(=O)C(=O)NCCN2CCN(C(=O)c3ccc(C)cc3)CC2)cc1 | inconclusive: 11.6 µM [cytotoxic, partial curve, poor fit] | –
CCOC(=O)c1c(NC(=O)CN2C(=O)NC3(CCCCC3C)C2=O)sc(C)c1CC (stereo unspecified) | inconclusive: 0.92 µM [cytotoxic, partial curve, poor fit] | –
CN(C(=O)Cn1c(Cl)nc2c1c(=O)n(C)c(=O)n2C)C1CCS(=O)(=O)C1 (stereo unspecified) | inconclusive: 20.6 µM [rising, single point] | –
Fc1ccccc1COc1ccc(/C=N/n2cnnc2)cc1 | inconclusive: 25.9 µM [cytotoxic, partial curve] | –
